In article PMC8860610:
These are yes or no findings as the source states them, for the method shown.

Sequences of proteins named here, by UniProt entry; tags and fusion partners are left off. A change or cut given only in a name is not applied to a line headed by its entry.
UniProt P32558: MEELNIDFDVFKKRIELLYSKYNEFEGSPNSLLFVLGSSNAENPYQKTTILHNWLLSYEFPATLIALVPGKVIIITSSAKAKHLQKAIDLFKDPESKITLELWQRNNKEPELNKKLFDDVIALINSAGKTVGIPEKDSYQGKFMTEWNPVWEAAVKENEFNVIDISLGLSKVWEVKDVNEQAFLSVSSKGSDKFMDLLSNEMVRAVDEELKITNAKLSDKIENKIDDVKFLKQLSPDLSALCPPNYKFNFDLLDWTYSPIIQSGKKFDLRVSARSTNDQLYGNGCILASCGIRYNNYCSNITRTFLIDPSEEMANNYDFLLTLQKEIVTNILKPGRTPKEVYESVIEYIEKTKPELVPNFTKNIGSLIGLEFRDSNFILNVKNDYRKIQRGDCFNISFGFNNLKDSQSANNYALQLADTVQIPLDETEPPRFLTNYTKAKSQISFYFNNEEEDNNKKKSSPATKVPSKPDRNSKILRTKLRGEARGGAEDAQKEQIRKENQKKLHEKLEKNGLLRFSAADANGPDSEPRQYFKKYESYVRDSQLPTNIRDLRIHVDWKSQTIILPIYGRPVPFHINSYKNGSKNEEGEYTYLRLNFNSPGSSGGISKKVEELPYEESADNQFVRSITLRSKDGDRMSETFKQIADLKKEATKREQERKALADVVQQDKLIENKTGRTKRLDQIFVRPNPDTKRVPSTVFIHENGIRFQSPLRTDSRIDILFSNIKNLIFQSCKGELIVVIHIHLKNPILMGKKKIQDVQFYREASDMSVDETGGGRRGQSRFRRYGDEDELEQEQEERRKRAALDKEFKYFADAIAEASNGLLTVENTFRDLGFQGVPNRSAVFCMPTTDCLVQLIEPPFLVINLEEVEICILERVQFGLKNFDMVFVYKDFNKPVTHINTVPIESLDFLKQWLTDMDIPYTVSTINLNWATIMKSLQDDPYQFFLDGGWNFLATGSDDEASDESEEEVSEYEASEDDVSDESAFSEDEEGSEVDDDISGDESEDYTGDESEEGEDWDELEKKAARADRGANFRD
UniProt Q04636: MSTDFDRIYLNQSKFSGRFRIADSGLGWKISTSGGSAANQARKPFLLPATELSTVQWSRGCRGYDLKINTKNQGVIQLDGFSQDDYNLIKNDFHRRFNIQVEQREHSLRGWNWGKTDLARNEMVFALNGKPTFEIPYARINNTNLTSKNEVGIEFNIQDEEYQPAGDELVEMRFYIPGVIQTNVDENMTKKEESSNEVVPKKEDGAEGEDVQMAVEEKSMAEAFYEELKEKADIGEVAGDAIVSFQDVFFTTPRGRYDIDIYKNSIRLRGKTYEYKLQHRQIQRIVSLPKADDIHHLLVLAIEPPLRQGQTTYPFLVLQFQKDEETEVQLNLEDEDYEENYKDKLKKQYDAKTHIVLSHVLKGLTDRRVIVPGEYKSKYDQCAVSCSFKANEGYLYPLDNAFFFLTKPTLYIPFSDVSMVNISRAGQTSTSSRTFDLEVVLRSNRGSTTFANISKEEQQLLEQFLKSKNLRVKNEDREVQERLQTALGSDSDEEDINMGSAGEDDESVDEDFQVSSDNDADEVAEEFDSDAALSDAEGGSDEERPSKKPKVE

Target: FACT consisting of Spt16 and GST-tagged Pob3 (Saccharomyces cerevisiae) (UniProt P32558+Q04636)
Test: pull-down; 0.5 μM GST-Pob3Spt16 as bait with 1 μM replisome factor, on ice 30 min, immobilised on glutathione agarose 90 min at 4°C, washed with buffer G (50 mM HEPES-NaOH pH 7.6, 300 mM NaCl, 0.05% NP-40), eluted with glutathione, SDS-PAGE; both purified

B1: Ctf4 (protein, UniProt Q01454 1-927)
chain: MVSVIDKLVFDFGGKTLVSLAPDNNTLCVANKNGLTKILKTNNPEEEPETLDSSKLVSSIKCYSNSHFLMTTMQGDALRYNIDSSQEELLARFALPLRDCCVIHSGKMAVFGGDDLELILLELDDETHKKHAIKIDEQVSQISYNSQMNILAVSMINGKVQIFSLTSTIPNKVHELNDYIVANSYDDTHRDKILSNMMDDIDKDNDNDLSETADPDENNVADPEFCAANRICTRVAWHPKGLHFALPCADDTVKIFSIKGYSLQKTLSTNLSSTKAHFIDLQFDPLRGTYIAAVDLNNKLTVWNWETSEIHYTREFKRKITNIAWKIQADSKTLDLVLGTWSGSIAIVQNLAESVVSNIPDQSVAESSTKHGLFVDSESDLENLEGNDDINKSDKLFSDITQEANAEDVFTQTHDGPSGLSEKRKYNFEDEEDFIDDDDGAGYISGKKPHNEHSYSRVHKTHSFPISLANTGKFRYMPFSPAGTPFGFTDRRYLTMNEVGYVSTVKNSEQYSITVSFFDVGRFREYHFEDLFGYDLCFLNEKGTLFGQSKTGQIQYRPHDSIHSNWTKIIPLQAGERITSVAATPVRVIVGTSLGYFRSFNQFGVPFAVEKTSPIVALTAQNYRVFSVHYSQFHGLSYSLSELGTSSKRYYKRECPLPMSLPNINSDMKKDANLDYYNFNPMGIKSLFFSSYGDPCIFGSDNTLLLLSKWRSPEESKWLPILDSNMEIWKMSGGKETTDIHVWPLALAYDTLNCILVKGKHIWPEFPLPLPSEMEIRMPVFVKSKLLEENKAILNKKNEIGADTEAEEGEEDKEIQIPVSMAAEEEYLRSKVLSELLTDTLENDGEMYGNENEVLAALNGAYDKALLRLFASACSDQNVEKALSLAHELKQDRALTAAVKISERAELPSLVKKINNIREARYEQQLK
binding: no binding (tested: 1 μM)

B2: Cdc45 (protein, UniProt Q08032 1-650)
chain: MYYGISQFSEAYNKILRNSSSHSSCQLVIFVSCLNIDALCATKMLSLLFKKQLVQSQIVPIFGYSELRRHYSQLDDNINSLLLVGFGGVIDLEAFLEIDPQEYVIDTDEKSGEQSFRRDIYVLDAHRPWNLDNIFGSQIIQCFDDGTVDDTLGEQKEAYYKLLELDEESGDDELSGDENDNNGGDDEATDADEVTDEDEEDEDETISNKRGNSSIGPNDLSKRKQRKKQIHEYEGVLEEYYSQGTTVVNSISAQIYSLLSAIGETNLSNLWLNILGTTSLDIAYAQVYNRLYPLLQDEVKRLTPSSRNSVKTPDTLTLNIQPDYYLFLLRHSSLYDSFYYSNYVNAKLSLWNENGKKRLHKMFARMGIPLSTAQETWLYMDHSIKRELGIIFDKNLDRYGLQDIIRDGFVRTLGYRGSISASEFVEALTALLEVGNSTDKDSVKINNDNNDDTDGEEEEDNSAQKLTNLRKRWVSNFWLSWDALDDRKVELLNRGIQLAQDLQRAIFNTGVAILEKKLIKHLRIYRLCVLQDGPDLDLYRNPLTLLRLGNWLIECCAESEDKQLLPMVLASIDENTDTYLVAGLTPRYPRGLDTIHTKKPILNNFSMAFQQITAETDAKVRIDNFESSIIEIRREDLSPFLEKLTLSGLL
binding: no binding (tested: 1 μM)
